This is an account of results in PubChem BioAssay AID493014 (National Center for Advancing Translational Sciences (NCATS), 2011).

This is one part of the list. The main result of the screen is listed elsewhere. These columns were measured beside it and carry no call. The list favours compounds with an active or inconclusive main result. Potencies come from curve fits of mixed quality, noted in brackets.

The experiment is described as follows: qHTS Assay to Find Inhibitors of Chronic Active B-Cell Receptor Signaling. The settings on record: ABC-DLBCL IkBa-CBG/CBR reporter, luminescence ratio (green luciferase fused to IkBa over red control in TMD8 lymphoma cells), 4 h. The essentials:
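Doxycycline induced both beetle luciferases in TMD8 lymphoma cells; IKK-driven degradation limits the IkappaBalpha-fused green signal, while red luminescence normalises for cell number and nonspecific effects. Compounds tested up to 46 uM, 4 hrs.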
Background: qHTS replaces the single test concentration by a dilution series.

Where [1] appears, read: measured here: CBR red luminescence, cell number.
[2] abbreviates: measured here: IkBa-CBG green luminescence.

In general, AC50 refers to the midpoint of the concentration-response curve, whichever way the signal moves. As to `Cc1cc(C)c(C#N)c(SCc2c(F)cccc2[N+](=O)[O-])n1`, the AC50 is 5.17 µM [rising, full curve, poor fit] under setting [1] and 10.3 µM [falling, partial curve, poor fit] under setting [2]. As for `CC(CCc1ccco1)NC(=O)c1cc2c(-c3ccccc3F)nn(C)c2s1` (stereo not given), the half-maximal activity concentration (AC50) under setting [1] was 7.31 µM [falling, partial curve, poor fit]. For the compound `CCC12CN(S(=O)(=O)c3ccc(C)cc3)CC(CC)(CN(S(=O)(=O)c3ccc(C)cc3)C1)C2=O`, under setting [1], the half-maximal activity concentration (AC50) was 0.517 µM [falling, full curve, poor fit].

Turning to `CCOc1ccccc1N1CCN(S(=O)(=O)c2ccc3c4c(cccc24)C(=O)N3)CC1`, under setting [1], the concentration at half-maximal activity (AC50) is 23.1 µM [falling, single point]. `O=C(NCc1ccccc1)c1cnc(-c2ccccn2)nc1C(F)(F)F`: under setting [1], the AC50 is 29.1 µM [rising, single point].

As for `Cc1ccc(Nc2nc(-c3ccc(F)cc3)cs2)nc1`, the AC50 under setting [1] was 0.316 µM [falling, full curve, poor fit].

Consider `CCCCN(C(=O)CSc1nnc(-c2ccccc2)o1)c1c(N)n(CCC)c(=O)[nH]c1=O`, for which the AC50 under setting [1] was 2.91 µM [rising, partial curve]. In the case of `O=c1[nH]cnc2c1C1(CCCC1)Cc1ccccc1-2`, under setting [1], the half-maximal activity concentration (AC50) was 14.6 µM [falling, single point]. On the same count and under the same terms, with `O=C1COCCOCCOCCOCC(=O)NCCN1` the figure was 14.1 µM [rising, single point].

As for `Cc1ccc(-c2n[nH]c3c2C(c2ccccc2)N(c2ccc(C(=O)O)cc2)C3=O)cc1` (stereo not given), under setting [1], the AC50 is 20 µM [falling, single point]. Still for that read-out and setting: the value for `CCOc1ccc2nc(N3CCC(C(=O)N4CCN(C5CCCCC5)CC4)CC3)sc2c1` was 23.1 µM [falling, partial curve, poor fit]; that for `COc1cccc(COC(=O)C2CCN(S(=O)(=O)c3cccs3)CC2)c1OC` was 11.6 µM [rising, partial curve, poor fit]; that for `O=C(NC(=S)NNC(=O)c1ccccc1O)c1cccc([N+](=O)[O-])c1` was 5.01 µM [falling, partial curve]. As to `NS(=O)(=O)c1ccc(NC(=O)CSc2nnc(COc3ccccc3Cl)n2C2CC2)cc1`, the concentration at half-maximal activity (AC50) under setting [1] was 29.1 µM [falling, single point]. For `Cc1ccc(C(=O)OCC(=O)Nc2sc3c(c2C#N)CCCC3)cc1NC(=O)c1ccco1`, the concentration at half-maximal activity (AC50) under setting [1] is 2.91 µM [rising, single point]. Still for that read-out and setting: the value for `O=Cc1c(NCCN2CCCC2)c2ccccc2[nH]c1=O` was 12.6 µM [falling, single point]. For `Cc1ccc2c(c1)N(CC(=O)O)C(=O)CO2`, under setting [1], the concentration at half-maximal activity (AC50) was 35.5 µM [rising, partial curve, poor fit]. Regarding `O=C(NCCSc1ccccc1)c1cncc(Br)c1`, the AC50 under setting [1] was 13 µM [falling, partial curve, poor fit]. For `COc1ccc(C)cc1NC(=O)c1ccccc1N(C)S(=O)(=O)c1ccccc1`, the AC50 under setting [1] was 4.47 µM [falling, partial curve]. The same measure, in the same setting: with `COc1ccc(-c2sc3ccc(N4CCOCC4)cc3c2-c2ccc(O)cc2)cc1` the figure was 11.6 µM [falling, partial curve, poor fit]; with `CCn1c(SCC(=O)Nc2nc(-c3ccccc3)cs2)nnc1-c1ccccc1`, 35.5 µM [falling, single point]. On the same count and under the same terms, with `C=CCn1c(=O)c2c(nc3n2CCCN3CCc2ccccc2)n(C)c1=O` the figure was 5.62 µM [falling, partial curve, poor fit]; with `CC1CCCCN1Cc1nc2c(c(=O)n(C)c(=O)n2C)n1CCc1ccccc1` (stereo not given), 11.6 µM [rising, single point]; with `COc1ccc(/C=N/Nc2nc(Nc3ccccc3)nc(N3CCCC3)n2)cc1[N+](=O)[O-]`, 2.82 µM [falling, full curve, poor fit].

Take `N#C/C(=N\Nc1ccc(S(=O)(=O)N2CCc3ccccc32)cc1)C(N)=S`: under setting [1], the AC50 is 35.5 µM [falling, single point]. For `Cc1ccccc1OCC(=O)NNC(=O)c1ccc(-c2ccccc2)cc1`, under setting [1], the AC50 is 20.6 µM [rising, single point]. Same read-out and setting: the value for `Cc1ccc2nc(N(Cc3cccnc3)C(=O)CCc3ccccc3)sc2c1` was 1.41 µM [rising, full curve, poor fit]; that for `Clc1c(Cl)c(Cl)c2n[nH]nc2c1Cl` was 20 µM [falling, partial curve, poor fit].

In the case of `O=S1(=O)N=C(Nc2nc3c(s2)CCCC3)c2ccccc21`, the concentration at half-maximal activity (AC50) was 20.6 µM [falling, partial curve] under setting [1] and 32.6 µM [falling, partial curve, poor fit] under setting [2]. As for `CC(=O)Nc1cccc(C(=O)/C=C/c2ccc(N(C)C)cc2)c1`, the half-maximal activity concentration (AC50) under setting [1] was 10.3 µM [falling, partial curve]. Turning to `CC(=O)Nc1ccc2nc(SCC(=O)N3CCOCC3)sc2c1`, the AC50 under setting [1] is 35.5 µM [falling, single point].

As to `CCc1nc2ccccc2c(C(=O)OCc2nnc(-c3ccccc3)o2)c1C`, the AC50 under setting [1] was 29.1 µM [falling, single point].

Turning to `Cc1ccc(NC(=O)c2csnn2)c(C)c1`, under setting [1], the AC50 is 16.4 µM [rising, partial curve, poor fit]. Still for that read-out and setting: the value for `COc1ccc(S(=O)(=O)n2ccc(C(C)Oc3ccc(-c4ccccc4)c(F)c3)n2)cc1` (stereo not given) was 4.11 µM [falling, single point]. In the case of `CC1CC(=O)N(CC(=O)Nc2ccc(F)cc2)c2ccccc2S1(=O)=O` (stereo not given), the AC50 under setting [1] was 20 µM [falling, partial curve]. On to `COc1ccc(-c2ccc(=O)n(CC(=O)Nc3ccc4c(c3)OCCO4)n2)cc1`, for which the concentration at half-maximal activity (AC50) under setting [1] is 22.4 µM [falling, single point].

Turning to `Cc1nc2ccc(C(=O)Nc3ccccc3Cl)cc2s1`, the half-maximal activity concentration (AC50) under setting [1] is 14.1 µM [falling, partial curve, poor fit]. For the compound `COc1ccc(NS(=O)(=O)c2cc(NC(=O)c3ccc(=O)[nH]c3)ccc2N2CCCC2)cc1`, under setting [1], the concentration at half-maximal activity (AC50) was 12.6 µM [rising, partial curve, poor fit].

In the case of `O=C(Nc1ccc(Cl)c(S(=O)(=O)N2CCOCC2)c1)c1ccc2c(c1)OCO2`, the AC50 under setting [1] is 29.1 µM [falling, single point]. For `COc1ccc(C)cc1NC(=O)CN(C)S(=O)(=O)c1cc(C)ccc1OC`, under setting [1], the concentration at half-maximal activity (AC50) is 6.51 µM [rising, partial curve].

`CCOC(=O)c1sc(NC(=O)CSc2nnc(Cc3ccccc3)o2)c(C#N)c1C`: the AC50 under setting [1] was 6.51 µM [rising, partial curve, poor fit]. The same measure, in the same setting: the value for `COc1ccc(NC(=O)C(=O)c2cn(CC(=O)N3CCCC3)c3ccccc23)cc1OC` was 3.16 µM [falling, full curve, poor fit]; that for `O=C(OCC(=O)N1CCN(c2ccccc2)CC1)c1ccccc1[N+](=O)[O-]` was 2.59 µM [rising, full curve, poor fit]; that for `CN(c1ccccc1)c1nc(N)c(C#N)c(CC#N)c1C#N` was 29.1 µM [falling, single point]. Regarding `N#CCn1c2ccccc2c2nc3ccccc3nc21`, the AC50 is, setting by setting: under setting [1], 0.562 µM [falling, full curve, poor fit]; under setting [2], 0.794 µM [rising, full curve].

With `Cn1c(Cn2nnc(-c3ccccc3)n2)nnc1SCc1ccccc1Cl`, the AC50 was 23.1 µM [falling, partial curve] under setting [1] and 23.1 µM [rising, partial curve, poor fit] under setting [2]. Take `Nc1ncnc(NC2CCS(=O)(=O)C2)c1[N+](=O)[O-]` (stereo not given): under setting [1], the half-maximal activity concentration (AC50) is 1.26 µM [falling, partial curve, poor fit].

As for `CCOC(=O)/C(C#N)=C/c1ccc(OCC(=O)Nc2ccccc2)c(OC)c1`, the AC50 under setting [1] was 13 µM [falling, partial curve]. As to `CC(C(=O)NC(=O)NC1CCCCC1)N1CCN(c2ccccn2)CC1` (stereo not given), under setting [1], the concentration at half-maximal activity (AC50) was 5.01 µM [falling, partial curve, poor fit]. Consider `CCOc1ccccc1NC(=O)C1CCN(S(=O)(=O)c2c(C)nn(C)c2C)CC1`, for which the half-maximal activity concentration (AC50) under setting [1] is 0.82 µM [rising, full curve, poor fit]. On the same count and under the same terms, the value for `COc1cc2nc(CN3CCN(S(=O)(=O)c4cc(C)ccc4C)CC3)[nH]c(=O)c2cc1OC` was 7.31 µM [rising, partial curve, poor fit]. Still for that read-out and setting: the value for `Cc1nn(CCC(=O)NNC(=S)Nc2cccc(Cl)c2)c(C)c1[N+](=O)[O-]` was 9.2 µM [rising, single point].

Regarding `COc1ccc(-c2nnc(SCC(=O)NNC(=O)Cc3ccccc3)n2C)cc1OC`, the half-maximal activity concentration (AC50) under setting [1] was 10.3 µM [rising, partial curve]. For the compound `Cc1nc2c(ccc3nc(NC(=O)c4ccc5c(c4)OCCO5)sc32)s1`, the AC50 under setting [1] was 6.31 µM [falling, partial curve, poor fit]. On the same count and under the same terms, with `CCOC(=O)c1ccc(NC(=O)COc2ccccc2CNC2CCCC2)cc1` the figure was 15.8 µM [falling, single point]; with `CC(NC(=O)C12CC3CC(CC(O)(C3)C1)C2)c1ccccc1` (stereo not given), 17.8 µM [rising, partial curve, poor fit]. Take `COc1ccc(CCNC(=O)c2cc(-c3ccc(C)c(C)c3)nc3ccccc23)cc1OC`: under setting [1], the AC50 was 0.562 µM [rising, full curve, poor fit]. For `COc1ccc(CNS(=O)(=O)CCNC(=O)c2ccc(OC)cc2)cc1`, under setting [1], the AC50 is 16.4 µM [falling, single point]. Same read-out and setting: the value for `CCOC(=O)CC1=CC(=O)Nc2ccccc2N1` was 35.5 µM [rising, partial curve, poor fit]; that for `O=S(=O)(Nc1ccc(N2CCCCC2)cc1)c1cccc2cccnc12` was 29.1 µM [rising, single point]. The same measure, in the same setting: with `COc1ccccc1C(=O)N/C(=C/c1ccco1)C(=O)Nc1ccc(C(=O)O)cc1` the figure was 11.2 µM [falling, partial curve, poor fit].
